Measurements reported in PubChem BioAssay AID1508597 (Cure First, 2020).
Screen: 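Knock-downs altering ovarian cancer cell survival with or without PARP inhibitor rucaparib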 (primary screen). Cells: human ovarian carcinoma lines grown from tumours: OCI-P5x (papillary serous) and OCI-C5x (clear cell). Reagent: siRNA pool against human genes, 1.25 pmol siRNA per well. Time to read-out: 72 h or 96 h, depending on the cell culture. Treatment: rucaparib 20 µM (about IC30) or vehicle, present until read-out. Rucaparib or vehicle: Rucaparib. Cell line: OCI-C5x (clear cell). Read-out: 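Luminescent ATP-based viability assay read 72 or 96 h after transfection, depending on culture, given as normalised percent viability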. Scale: viability, normalised: higher = more viable cells remaining. Hit rule: 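Active when normalised viability falls below 80 percent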. Calls: active = viability under 80%; inactive = viability 80% or more.
This is an unselected part of the about 2,100 reagents, under one of the conditions tested. 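Calls flag viability under 80% in either arm, not effects specific to rucaparib; the reference for percent is not stated.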 A reagent listed more than once was tested more than once; the source does not tell the runs apart. Not given: the 100% reference.

no.	target gene	technical replicate	viability, normalised (%)	outcome
1	PKN2	1	51.2	active
2	PKN2	2	63	active
3	PKN2	3	56	active
4	CDK5	1	35.1	active
5	CDK5	2	31.7	active
6	CDK5	3	31.3	active
7	AMHR2	1	48.5	active
8	AMHR2	2	49.3	active
9	AMHR2	3	38.7	active
10	LY6E	1	49.6	active
11	LY6E	2	37.9	active
12	LY6E	3	49.5	active
13	CNR2	1	49.2	active
14	CNR2	2	59.5	active
15	CNR2	3	44.6	active
16	IRAK1	1	35.8	active
17	IRAK1	2	41	active
18	IRAK1	3	36.1	active
19	DDX59	1	52.1	active
20	DDX59	2	47.1	active
21	DDX59	3	42.4	active
22	PHF14	1	42.4	active
23	PHF14	2	31.3	active
24	PHF14	3	34.4	active
25	MPG	1	63.3	active
26	MPG	2	52.8	active
27	MPG	3	75.1	active
28	STK25	1	35.1	active
29	STK25	2	49.6	active
30	STK25	3	68.3	active
31	RAD50	1	49.2	active
32	RAD50	2	46.4	active
33	RAD50	3	44.8	active

8 of these entries, reformatted.
target gene	technical replicate	viability, normalised (%)	outcome
DDX59	3	42.4	active
PHF14	1	42.4	active
PHF14	2	31.3	active
PHF14	3	34.4	active
MPG	1	63.3	active
MPG	2	52.8	active
MPG	3	75.1	active
STK25	1	35.1	active

More records:
no.	target gene	technical replicate	viability, normalised (%)	outcome
34	MED9	1	39.8	active
35	MED9	2	39.9	active
36	MED9	3	22.3	active
37	TLR4	1	36.3	active
38	TLR4	2	49.2	active
39	TLR4	3	30.2	active
40	RYK	1	53.4	active
41	RYK	2	67.5	active
42	RYK	3	60.8	active
43	NME3	1	42	active
44	NME3	1	32.2	active
45	NME3	2	51.7	active
46	NME3	2	43	active
47	NME3	3	45	active
48	NME3	3	21.4	active
49	NONO	1	44.8	active
50	NONO	2	39.7	active
51	NONO	3	57.8	active
52	NRXN3	1	49.5	active
53	NRXN3	2	40.7	active
54	NRXN3	3	39.5	active
55	MRE11	1	71.2	active
56	MRE11	2	61.2	active
57	MRE11	3	66.8	active
